# From patent publication US20070134261A1, “Effectors of innate immunity” (priority 2001, published 2007)
# Part of at least one peptide drawing is inferred or uncertain, most often the ends. No end group written: not given here.
# Tested on: A549 epithelial cells
# Assay: Human Operon arrays (PRHU04-S1) of A549 cells treated with peptide alone (Tables 31-37, 53)
# Conditions: 4 h
sequence,measurement,setting,value
RPRYPWWPWWPYRPRK [SEQ ID NO: 19],"ID#:ctrl intensity ratio, AB000887 small inducible cytokine subfamily A","peptide 50 μg/ml, A549 cells",3.3
same,"ID#:ctrl intensity ratio, AB011096 KIAA0524 protein","peptide 50 μg/ml, A549 cells",8.5
same,"ID#:ctrl intensity ratio, AB014548 KIAA0648 protein","peptide 50 μg/ml, A549 cells",2.0
same,"ID#:ctrl intensity ratio, AB018320 Arg/Abl-interacting protein","peptide 50 μg/ml, A549 cells",4.6
same,"ID#:ctrl intensity ratio, M80359 MAP/microtubule affinity-regulating kinase 3","peptide 50 μg/ml, A549 cells",2.9
same,"ID#:ctrl intensity ratio, NM_014139 sodium channel voltage-gated,","peptide 50 μg/ml, A549 cells",31.6
KSRIVPAIPVSLL [SEQ ID NO: 7],Fold Up regulation of Gene Expression relative to Untreated Cells: Cell cycle gene (S70622),50 μg/ml,3.2 fold
same,Fold Up regulation of Gene Expression relative to Untreated Cells: Dehydrogenase (D17793),50 μg/ml,2.2 fold
same,Fold Up regulation of Gene Expression relative to Untreated Cells: Forkhead protein (AF042832),50 μg/ml,3.5 fold
same,Fold Up regulation of Gene Expression relative to Untreated Cells: Homeobox protein (AC004774),50 μg/ml,2.5 fold
same,Fold Up regulation of Gene Expression relative to Untreated Cells: IL-10 Receptor (U00672),50 μg/ml,9 fold
same,Fold Up regulation of Gene Expression relative to Untreated Cells: KIAA0284 Protein (AB006622),50 μg/ml,2.1 fold
same,Fold Up regulation of Gene Expression relative to Untreated Cells: Peroxisome factor (AB013818),50 μg/ml,2.9 fold
same,Fold Up regulation of Gene Expression relative to Untreated Cells: Polypeptide (AF105424),50 μg/ml,5.3 fold
same,Fold Up regulation of Gene Expression relative to Untreated Cells: Protein (AL050261),50 μg/ml,2.8 fold
same,Fold Up regulation of Gene Expression relative to Untreated Cells: Receptor (AF112461),50 μg/ml,10.0 fold
same,Fold Up regulation of Gene Expression relative to Untreated Cells: SPR1 protein (AB031480),50 μg/ml,2.7 fold
same,Fold Up regulation of Gene Expression relative to Untreated Cells: Transferase (AF038664),50 μg/ml,9.7 fold
same,Fold Up regulation of Gene Expression relative to Untreated Cells: Transferase (M63509),50 μg/ml,2.1 fold
same,Fold Up regulation of Gene Expression relative to Untreated Cells: Unknown (AL096803),50 μg/ml,4.3 fold
same,Fold Up regulation of Gene Expression relative to Untreated Cells: Zinc finger protein (AF061261),50 μg/ml,9.4 fold
